Test results published in USRE49280.
No constants are given. Whether binding was seen depends on the method and setting. Some entries that bind do so weakly or less than the wild type. Where a sequence is shown, tags or fusion partners need not be part of it.

The chains behind the UniProt entries cited, without tags or fusion partners. Residues count along the entry.
UniProt P01137, residues 279-390: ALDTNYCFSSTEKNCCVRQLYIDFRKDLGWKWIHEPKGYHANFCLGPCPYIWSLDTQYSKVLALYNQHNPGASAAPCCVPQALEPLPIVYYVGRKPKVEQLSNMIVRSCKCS

Columns and labels:
TGF-β3 [1] = target: T1, TGF-β3 (UniProt P10600); experiment: SPR competition, 0.8 nM TGF-β3 with increasing receptor fusion over immobilised 1D11 (competitor)
T1 sequence (looked up): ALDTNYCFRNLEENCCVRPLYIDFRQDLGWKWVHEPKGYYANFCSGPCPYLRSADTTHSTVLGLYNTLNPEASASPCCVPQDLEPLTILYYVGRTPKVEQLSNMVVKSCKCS

TGF-β3 [2] = target: T1, TGF-β3; experiment: SPR, fusion injected over immobilised TGF-β3
TGF-β1 [3] = target: TGF-β1 (UniProt P01137); experiment: SPR, fusion injected over immobilised TGF-β1
TGF-β3 [4] = target: T1, TGF-β3; experiment: SPR
TGF-β1 [5] = target: TGF-β1 (UniProt P01137); experiment: SPR

Measured: binding

B1: RER (TβRII-TβRIIIE-TβRII) heterotrimeric fusion (designed binder)
chain: AAANGAVKFPQLCKFCDVRFSTCDNQKSCMSNCSITSICEKPQEVCVAVWRKNDENITLETVCHDPKLPYHDFILEDAASPKCIMKEKKKPGETFFMCSCSSDECNDNIIFSEEYNTSNPDGLGPVESSPGHGLDTAAAGPEPSTRCELSPINASHPVQALMESFTVLSGCASHGTTGLPREVHVLNLRSTDQGPGQRQREVTLHLNPIASVHTHHKPIVFLLNSPQPLVWRLKTERLAAGVPRLFLVSEGSVVQFPSGNFSLTAETEERNFPQENEHLLRWAQKEYGAVTSFTELKIARNIYIKVGEDQVFPPTCNIGKNFLSLNYLAEYLQPKAAEGCVLPSQPHEKEVHIIELITPSSNPYSAFQVDIIVDIRPAQEDPEVVKNLVLILKSKKSVNWVIKSFDVKGNLKVIAPNSIGFGKESERSMTMTKLVRDDIPSTQENLMKWALDAGYRPVTSYTMAPVANRFHLRLENNEEMRDEEVHTIPPELRILLDPDKLPQLCKFCDVRFSTCDNQKSCMSNCSITSICEKPQEVCVAVWRKNDENITLETVCHDPKLPYHDFILEDAASPKCIMKEKKKPGETFFMCSCSSDECNDNIIFSEEYNTSNPD
binds: all assays above
